According to PubChem BioAssay AID504467 (National Center for Advancing Translational Sciences (NCATS), 2011):
In all, about 330,000 compounds went through this assay and about 7,700 (2.3%) were called active. This list was built around the results that the source calls inconclusive (neither active nor inactive); the mix of calls is not that of the screen. Calls follow the shape of the dose curve; as a rule, active = well fitted inhibition curve with a large enough effect; inconclusive = small, poorly fitted or top-dose-only effect, or effect the other way; inactive = flat fitted curve, though single readings scatter. Potencies of inconclusive entries are doubtful fits and often do not repeat.

Experiment: qHTS screen for small molecules that inhibit ELG1-dependent DNA repair in human embryonic kidney (HEK293T) cells expressing luciferase-tagged ELG1; also: nearly all actives have a fitted effect of over 55% in size
Conditions: HEK293T ELG1-luciferase reporter, luminescence, 16 h, DNA damage induced by 5-fluorouridine; activity change, negative = inhibition: at 46.1 µM (top of the series)
Outline: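 In this reporter screen, reduction of luminescence relative to DMSO vehicle indicated activity. Compounds and 5-fluorouridine were added together to 2,000 cells per well, incubated for 16 hr at 37 °C, then developed with ONE-Glo.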
% is scaled to controls: 0 for no effect and ±100 for the full control effect; potency is read from the fitted curve at half-maximal effect.

Row | SMILES | Potency | activity change, negative = inhibition
1 | C[C@@H]1CN(C(=O)c2cc(COc3cccc(C(F)(F)F)c3)on2)C[C@H](C)O1 | active: 14.6 µM | –
2 | COc1cc(/C=C2/CC(C)OC2=O)c([N+](=O)[O-])cc1OC (configuration not stated) | – | inactive: -1.22%
3 | Cc1onc(-c2ccccc2Cl)c1C(=O)N1CCc2ccccc21 | inconclusive: 0.0046 µM [inhibitor, full curve, poor fit] | –
4 | O=C(O)c1ccc(COc2ccc3ccccc3c2/C=C2/NC(=O)N(c3ccccc3)C2=O)cc1 | inconclusive: 29.1 µM [inhibitor, single point] | –
5 | COc1cc(OC)c(C2SCCN2S(=O)(=O)c2ccc(F)cc2)cc1OC (configuration not stated) | inconclusive: 13 µM [inhibitor, partial curve] | –
6 | CCN(c1ccccc1)S(=O)(=O)c1cccc(C(=O)NCc2ccncc2)c1 | – | inactive: -9.57%
7 | Cc1ccc(CNC(=O)c2ccc(C)c(S(=O)(=O)N3CCCCC3)c2)cc1 | inconclusive: 29.1 µM [inhibitor, single point] | –
8 | COc1ccc(CNC(=O)CSCc2c(F)cccc2Cl)cc1 | inconclusive: 23.1 µM [activator, partial curve, poor fit] | –
9 | C/C(=N\Nc1nncc2ccccc12)c1cccc(OC(F)F)c1 | inconclusive: 2.59 µM [activator, partial curve] | –
10 | CCCOc1ccccc1Cn1c(=O)oc2ccccc21 | – | inactive: 22%
11 | COc1ccc(NC(=O)c2ccco2)c([N+](=O)[O-])c1 | inconclusive: 11.6 µM [activator, partial curve] | –
12 | COC(=O)C1CCN(Cc2cn(-c3ccccc3)nc2-c2ccc3c(c2)OCO3)CC1 | inconclusive: 25.9 µM [inhibitor, single point] | –
13 | Cc1c(CN2CCC(n3nccc3NC(=O)C3CC3)CC2)[nH]c2ccccc12 | – | inactive: -5.46%
14 | COc1ccccc1C(CNC(=O)CNC(=O)c1ccccc1Cl)N1CCCC1 (configuration not stated) | inconclusive: 5.62 µM [activator, partial curve, poor fit] | –
15 | CCOC(=O)c1cc(C#N)c(SCc2cccc3ccccc23)nc1C | – | inactive: 3.57%
16 | O=C(c1cc2c(s1)CCCC2)N1CCN(c2ccccc2)CC1 | inconclusive: 16.4 µM [activator, partial curve] | –
17 | O=C(O)c1cccnc1SC1CC(=O)N(c2ccccc2)C1=O (configuration not stated) | – | inactive: -17%
18 | Cc1cccc(C)c1NC(=O)CNC(=O)c1cccnc1 | – | inactive: -5.67%
19 | CCOC(=O)c1ccc(NC(=O)C2C3CCCCC32)cc1 (configuration not stated) | inconclusive: 0.891 µM [activator, partial curve, poor fit] | –
20 | CC(=O)Oc1cccc(C(=O)Nc2ccc3c(c2)C(=O)N(CC2CCCO2)C3=O)c1 (configuration not stated) | – | inactive: 22.6%
21 | CCOc1ncccc1C(=O)Nc1cccc(-c2nc3cccnc3s2)c1 | – | inactive: -27.5%
22 | O=C(c1cc(-c2ccc(Br)cc2)n[nH]1)N1CCN(C(=O)c2ccccc2Br)CC1 | inconclusive: 18.3 µM [inhibitor, partial curve] | –
23 | CCOC(=O)CC(NC(=O)c1cc2cccc(OC)c2oc1=O)c1ccc(OC)cc1 (configuration not stated) | inconclusive: 20.6 µM [activator, partial curve] | –
24 | Oc1ccccc1-c1csc(-c2ccccc2)n1 | inconclusive: 20.6 µM [activator, partial curve] | –

Single values from the results shown.
Under activity change, negative = inhibition, COc1cc(/C=C2/CC(C)OC2=O)c([N+](=O)[O-])cc1OC (configuration not stated) reads inactive: -1.22%
Under Potency, COc1ccc(NC(=O)c2ccco2)c([N+](=O)[O-])c1 reads inconclusive: 11.6 µM [activator, partial curve]
Under Potency, COc1ccc(CNC(=O)CSCc2c(F)cccc2Cl)cc1 reads inconclusive: 23.1 µM [activator, partial curve, poor fit]

Remaining list, next part.

Row | SMILES | Potency | activity change, negative = inhibition
25 | Cc1ccc([N+](=O)[O-])cc1NC(=O)Nc1ccc(S(N)(=O)=O)cc1 | – | inactive: 19.1%
26 | O=C(Nc1ccccc1)c1ccc2nc(-c3ccco3)c(-c3ccco3)nc2c1 | active: 9.2 µM | –
27 | O=C(OCc1c(-c2ccccc2)ncc2ccccc12)c1cccs1 | inconclusive: 29.1 µM [inhibitor, single point] | –
28 | Cc1cc(C)cc(NC(=O)Nc2ccc(-n3ccc(C(F)(F)F)n3)cc2)c1 | inconclusive: 29.1 µM [inhibitor, single point] | –
29 | O=C1c2ccccc2C(=O)N1C/C=C/c1ccccc1 | inconclusive: 20.6 µM [activator, partial curve, poor fit] | –
30 | O=C(CCc1ccc(S(=O)(=O)NCc2ccccc2)cc1)N1CCN(Cc2ccc3c(c2)OCO3)CC1 | inconclusive: 18.4 µM [inhibitor, single point] | –
31 | O=[N+]([O-])c1ccc(Cl)c(CN2CCCCCC2)c1 | – | inactive: 1.23%
32 | O=C(CCCNC(=O)c1ccc(Cl)cc1)NCc1ccc(F)cc1 | – | inactive: -2.04%
33 | CCC(=O)Nc1sc2c(c1C(N)=O)CCN(Cc1ccccc1)C2 | inconclusive: 6.51 µM [inhibitor, partial curve] | –
34 | Cc1c(N=C/C=C/c2ccccc2)cnn1C | inconclusive: 5.8 µM [activator, partial curve] | –
35 | CCOC(=O)C1CCN(CC(C)(C)NS(=O)(=O)c2ccc(C)cc2)CC1 | inconclusive: 29.1 µM [inhibitor, single point] | –
36 | CCn1c(C)cs/c1=N\C(=S)Nc1ccccc1C | – | inactive: 26.1%
37 | Cc1cccc(C)c1OCC(O)CN (configuration not stated) | – | inactive: -0.164%
38 | Cc1ccc(OCc2nnc(NC(=O)c3ccco3)s2)cc1 | inconclusive: 6.51 µM [activator, partial curve, poor fit] | –
39 | COc1cccc(CNC(=O)C2CCC(CNc3c(N4CCC(C)CC4)c(=O)c3=O)CC2)c1 (configuration not stated) | – | inactive: 28.3%
40 | Cc1ccc(CNC(=O)c2ccc3c(=O)c(O)c(-c4ccc(C)cc4)[nH]c3c2)cc1 | – | inactive: -29.5%
41 | O=C(N/N=C/c1cccs1)c1cccnc1 | inconclusive: 0.206 µM [activator, partial curve, poor fit] | –
42 | CC(C)(CC(=O)O)CC(=O)N1CCCN(c2nccc(C(F)(F)F)n2)CC1 | inconclusive: 11.6 µM [activator, partial curve, poor fit] | –
43 | CCc1nnc2n1N=C(c1ccc(OC)cc1)CS2 | inconclusive: 16.4 µM [activator, partial curve, poor fit] | –
44 | COc1cc(OC)c(NC2=CC(=O)C(=O)c3ccccc32)cc1Cl | inconclusive: 32.6 µM [inhibitor, single point] | –
45 | COc1ccc(C(=O)C2CCCN(C(=O)c3ccnn3C)C2)cc1OC (configuration not stated) | – | inactive: 12.9%
46 | COc1cccc2sc(N3CCN(C(=O)c4ccc([N+](=O)[O-])o4)CC3)nc12 | inconclusive: 25.9 µM [inhibitor, single point] | –
47 | CCOC(=O)c1c(NC(=O)C(C)S(=O)(=O)c2cn(CC)c3ccccc23)sc2c1CCCC2 (configuration not stated) | – | inactive: -14.7%
48 | Cc1oc(C)c2c(=O)ccc3c(c12)OC(N)=C(C#N)C3c1ccccc1 (configuration not stated) | – | inactive: -11.7%

Row | SMILES | Potency | activity change, negative = inhibition
49 | Cc1ccc(N(C)/N=C/c2ccc(Cl)cc2Cl)nn1 | inconclusive: 25.9 µM [activator, single point] | –
50 | O=C(Nc1ccc2c(c1)OCO2)N1CCOCC1 | inconclusive: 23.1 µM [activator, single point] | –
51 | N#CCCn1nc(-c2ccc(Cl)cc2)cc1Nc1ccccc1NC(=O)C(F)(F)F | inconclusive: 23.1 µM [inhibitor, partial curve, poor fit] | –
52 | CC(C)(C)C(=O)N1c2ccccc2CCc2ccccc21 | – | inactive: -0.781%
53 | N#C/C(=C/c1ccc(N2CCCCC2)cc1)c1cccc(F)c1 | inconclusive: 16.4 µM [activator, partial curve] | –
54 | CCCc1nnc(-c2ccc(OC)cc2)o1 | inconclusive: 20.6 µM [activator, partial curve] | –
55 | O=C(NC1CCCC1)c1cc2c(ccc3ccccc32)o1 | inconclusive: 18.4 µM [activator, partial curve] | –
56 | COc1ccc2cc(S(=O)(=O)NCCCN3CCOCC3)ccc2c1 | inconclusive: 29.1 µM [inhibitor, partial curve, poor fit] | –
57 | O=C(O)c1ccc(N/N=C/c2ccc(-c3cc(Cl)ccc3Cl)o2)cc1 | inconclusive: 1.64 µM [activator, full curve] | –
58 | S=c1[nH]nc(-c2ccco2)n1/N=C/c1ccc(Cl)cc1 | – | inactive: 5.41%
59 | COc1cc(C(=O)NNC(=O)C2CC2)cc(OC)c1OC | – | inactive: -9.84%
60 | CCc1ccc(NC(=O)CSCc2ccc(C(=O)O)cc2)cc1 | – | inactive: -1.96%
61 | COc1cc(C(=O)Nc2sc3c(c2C(=O)O)CCC3)cc(OC)c1OC | – | inactive: -3.15%
62 | COc1ccc(Br)cc1Cn1nnc(C(=O)Nc2ccc3c(c2)OCCO3)c1N | – | inactive: -12.5%
63 | CCOc1ccc(Oc2nc(N(CC)CC)nc(N3CCOCC3)n2)nn1 | inconclusive: 14.6 µM [activator, partial curve] | –
64 | COc1ccc(-n2cc(C(=O)Nc3cc([N+](=O)[O-])ccc3OC)c3ccccc3c2=O)cc1 | inconclusive: 7.31 µM [inhibitor, partial curve] | –
65 | Cc1cc(C)cc(NC2=NC3(CCCCC3)N=C(N)N2)c1 | inconclusive: 3.66 µM [inhibitor, single point] | –
66 | Cc1cc(C)c(C2=CC(=O)C[C@H](c3ccc4c(c3)OCO4)C2)c(C)c1 | inconclusive: 16.4 µM [inhibitor, single point] | –
67 | Cc1ccc(OC(C)C(=O)N(Cc2cccs2)C2CCS(=O)(=O)C2)cc1C (configuration not stated) | – | inactive: -4.24%
68 | COc1ccc(CCNC(=O)C2CC(=O)N(c3ccc(C)cc3)C2)cc1OC (configuration not stated) | – | inactive: -4.56%
69 | C#CCn1c(O)c(N=NC(=O)CNC(=O)/C=C/c2ccccc2)c2ccccc21 | inconclusive: 18.3 µM [inhibitor, single point] | –
70 | O=c1[nH]c(=O)c2nc(-c3ccc(Cl)cc3)cnc2[nH]1 | inconclusive: 29.1 µM [activator, single point] | –
71 | O=C(Nc1ccc2ccccc2c1)N1CCN(c2ncccc2C(F)(F)F)CC1 | inconclusive: 3.66 µM [inhibitor, partial curve, poor fit] | –
72 | O=C1C(=O)N(CCCN2CCOCC2)C(c2ccc([N+](=O)[O-])cc2)/C1=C(\O)c1ccc2c(c1)OCCO2 (configuration not stated) | inconclusive: 20.6 µM [activator, partial curve, poor fit] | –
